Test results as given in paper PMC9132982, “Inhibitory role of proguanil on the growth of bladder cancer via enhancing EGFR degradation and inhibiting its downstream signaling pathway to induce autophagy” (Cell Death & Disease, 2022).
No constants are given. Whether binding was seen depends on the method and setting. In cells and extracts the contact can be indirect. Some binding calls cover weakened binding; strength is not graded here.

By UniProt entry, the sequences of proteins in these tests, tags left out.
UniProt Q03135: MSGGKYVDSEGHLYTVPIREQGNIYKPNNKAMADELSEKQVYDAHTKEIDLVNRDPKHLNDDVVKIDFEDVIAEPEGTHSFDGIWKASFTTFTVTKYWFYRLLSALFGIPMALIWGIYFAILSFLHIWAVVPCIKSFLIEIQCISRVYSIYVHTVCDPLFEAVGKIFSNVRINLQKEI

Biological target: epidermal growth factor receptor (human (endogenous in T24)) (UniProt P00533)
Assay: co-IP; T24 cells starved for 12 h and then treated with proguanil; lysates immunoprecipitated with EGFR antibody (protein A/G, overnight at 4 °C); immunoprecipitates tested by Western blot

binding: binds
Substance: Caveolin-1 (from UniProt Q03135 1-178)
